# Drug screen on melanoma cell lines: apoptosis marker

Data from the primary screen of doi:10.1371/journal.pone.0140310, rounded.

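Human melanoma cells were exposed to a pair of drugs for 72 h in 1,536-well plates and read by automated microscopy after fixing and staining. Values are the share of nuclei positive for cleaved PARP as a percentage of the same share in the DMSO control: 100 is the control level, higher means more apoptosis. Every drug was used at one fixed concentration, the higher of two screened. These are primary screening values without error estimates. The marker varies much from line to line, for technical or biological reasons.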 Only some of the drugs and lines screened are listed, without regard to their results. An entry leaves out what has no value listed here. A dash means that no value is listed here.

Drug key:
XAV939, 10 µM: Oc1nc(-c2ccc(C(F)(F)F)cc2)nc2c1CSCC2
OSU-03012, 5 µM: NCC(=O)Nc1ccc(-n2nc(C(F)(F)F)cc2-c2ccc3c(ccc4ccccc43)c2)cc1
MK-2206, 2 µM: NC1(c2ccc(-c3nc4ccn5c(=O)[nH]nc5c4cc3-c3ccccc3)cc2)CCC1
MK-1775, 0.1 µM: C=CCn1c(=O)c2cnc(Nc3ccc(N4CCN(C)CC4)cc3)nc2n1-c1cccc(C(C)(C)O)n1
CHIR-265, 0.4 µM: Cn1c(Nc2ccc(C(F)(F)F)cc2)nc2cc(Oc3ccnc(-c4ncc(C(F)(F)F)[nH]4)c3)ccc21
crizotinib, 1 µM: C[C@@H](Oc1cc(-c2cnn(C3CCNCC3)c2)cnc1N)c1c(Cl)ccc(F)c1Cl
dasatinib, 0.02 µM: Cc1nc(Nc2ncc(C(=O)Nc3c(C)cccc3Cl)s2)cc(N2CCN(CCO)CC2)n1

Combination,WM3526,RPMI-7951,UACC-257,COLO 792,WM1716,A101D,MZ2-MEL,WM1745,RVH-421,COLO 829
dasatinib + OSU-03012,628,71.3,162,200,684,370,344,235,94.5,272
dasatinib + crizotinib,119,270,59.9,155,125,83.2,236,387,651,239
MK-2206 + CHIR-265,1740,84.9,107,2280,234,257,448,174,50.1,515
XAV939 + dasatinib,30.2,403,51.4,294,546,172,81.6,263,116,123
crizotinib + OSU-03012,581,198,93.4,135,57.9,1690,37.6,150,35.1,74.1
MK-1775 + dasatinib,161,526,131,296,4250,104,172,317,125,90.0
XAV939 + MK-1775,73.5,138,12.8,216,159,71.9,119,206,423,74.5
CHIR-265 + MK-1775,971,130,86.8,1720,120,185,76.0,215,45.2,351
OSU-03012 + MK-1775,736,434,89.6,87.4,141,233,44.0,175,228,182
OSU-03012 + MK-2206,273,89.7,176,43.6,67.5,364,127,75.8,67.8,142
crizotinib + XAV939,128,71.3,132,61.0,121,216,89.1,-,59.1,56.5
MK-2206 + MK-1775,450,88.6,87.4,398,74.4,140,44.6,416,74.2,92.9
MK-2206 + crizotinib,168,74.9,41.4,236,138,46.3,84.0,173,67.2,188
XAV939 + OSU-03012,394,83.5,68.5,150,158,60.5,111,139,108,97.5
crizotinib + MK-1775,79.7,167,39.5,103,138,141,193,189,106,108
crizotinib + CHIR-265,482,92.6,46.7,1110,162,55.6,201,230,128,125
CHIR-265 + OSU-03012,843,190,83.9,637,30.6,164,141,116,133,200
CHIR-265 + dasatinib,374,999,48.9,3250,416,89.0,160,355,252,143
CHIR-265 + XAV939,883,148,141,1900,367,292,112,446,496,125
MK-2206 + dasatinib,143,178,104,363,85.6,191,60.9,238,163,144

2 of the entries, repeated:

{"combination": "OSU-03012 + MK-1775", "WM3526": 736, "RPMI-7951": 434, "UACC-257": 89.6, "COLO 792": 87.4, "WM1716": 141, "A101D": 233, "MZ2-MEL": 44.0, "WM1745": 175, "RVH-421": 228, "COLO 829": 182}
{"combination": "crizotinib + CHIR-265", "WM3526": 482, "RPMI-7951": 92.6, "UACC-257": 46.7, "COLO 792": 1110, "WM1716": 162, "A101D": 55.6, "MZ2-MEL": 201, "WM1745": 230, "RVH-421": 128, "COLO 829": 125}